Results are given in words; binding and its absence hold for the method and conditions named. In cells and extracts the contact can be indirect. Some entries that bind do so weakly or less than the wild type.
Target: T1, CD1d expressed on human renal proximal tubule epithelial cells (human (endogenous in RPTEC)) (UniProt P15813)
T1 sequence: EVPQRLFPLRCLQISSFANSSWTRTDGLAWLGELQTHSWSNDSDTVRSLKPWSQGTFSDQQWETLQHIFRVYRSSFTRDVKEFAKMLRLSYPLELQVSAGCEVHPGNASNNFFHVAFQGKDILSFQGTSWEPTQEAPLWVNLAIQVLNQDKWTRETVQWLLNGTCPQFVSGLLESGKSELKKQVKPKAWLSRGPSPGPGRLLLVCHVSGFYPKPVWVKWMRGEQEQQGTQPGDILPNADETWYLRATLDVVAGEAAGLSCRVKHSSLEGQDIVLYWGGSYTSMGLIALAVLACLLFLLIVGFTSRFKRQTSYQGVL
Test: co-IP; only the binder purified

Protein sequences, listed by entry. Tags and fused reporters are not part of them. Residues count along the entry.
UniProt P01552, residues 28-266: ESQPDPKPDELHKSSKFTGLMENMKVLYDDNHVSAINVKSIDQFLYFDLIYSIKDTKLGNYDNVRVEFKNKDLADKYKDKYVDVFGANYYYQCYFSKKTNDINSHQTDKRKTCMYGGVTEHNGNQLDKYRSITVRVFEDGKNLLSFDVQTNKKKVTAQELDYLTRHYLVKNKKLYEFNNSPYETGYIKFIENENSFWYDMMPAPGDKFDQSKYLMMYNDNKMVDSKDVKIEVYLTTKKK

For “staphylococcal enterotoxin B (from UniProt P01552 28-266)”, the binding was “binds”.

Source: paper PMC4327782
